At least one compound was matched to its structure with a doubt left.
Tested on: human patients exposed to cat allergen
Assay: Single-blind study, exposure to cat allergen after contrast media pretreatment (Example 11)
Type: in vivo
Conditions: 1:10 dilution of cat allergen
Procedure: A single-blind study was conducted using three human patients. The patients were exposed to cat allergen at three different dilutions, 1:1,000, 1:100, and 1:10. […] Exposure to the 1:100 dilution of allergen caused a mild reaction in all of the patients. Exposure to the 1:10 dilution of allergen caused moderate reactions in all of the patients, with one patient in particular requiring some treatment for the reaction.
Patients were then pre-treated with VISIPAQUE®320 (iodixanol).
Patients were pre-treated with Iotrolan 280.
Table 1 summarizes the results and symptoms after exposure to a 1:10 dilution of cat allergen both with and without pretreatment with VISIPAQUE®320 or Iotrolan 280.

CN(C(=O)CC(=O)N(C)c1c(I)c(C(=O)NC(CO)C(O)CO)c(I)c(C(=O)NC(CO)C(O)CO)c1I)c1c(I)c(C(=O)NC(CO)C(O)CO)c(I)c(C(=O)NC(CO)C(O)CO)c1I (stereo not drawn) [Iotrolan 280, Iotrolan]
Total (sum of itch, drip, congestion): 2+
Congestion (three human patients): 1+
Drip (three human patients): 1+

From patent publication US20160136118A1, “COMPOSITIONS AND METHODS FOR THE TREATMENT OF A COMMON COLD AND SYMPTOMS THEREOF” (3E THERAPEUTICS CORPORATION, priority 2007, published 2016)
